This passage reports survivor count results from PubChem BioAssay AID248 (DTP/NCI, 2004).

This assay has as its system L1210 leukemia ip in BDF1 mice, survival T/C. Nature of the assay: NCI In Vivo Anticancer Drug Screen. Data for tumor model L1210 Leukemia (intraperitoneal) in B6D2F1 (BDF1) mice. The settings on record: T/C endpoint: mean survival time, higher T/C = longer survival.
Where [1] appears, read: dose: 200.0 mg/kg/injection, schedule: Q01DX009 (ip), vehicle: Klucel (hydroxypropylcellulose) (HPC).
Setting [2] is: dose: 100.0 mg/kg/injection, schedule: Q04DX003 (ip), vehicle: saline.
[3] abbreviates: dose: 200.0 mg/kg/injection, schedule: Q04DX003 (ip), vehicle: saline.
Where [4] appears, read: dose: 50.0 mg/kg/injection, schedule: Q01DX009 (ip), vehicle: saline.
Setting [5] is: dose: 100.0 mg/kg/injection, schedule: Q01DX009 (ip), vehicle: saline.
The mark [6] stands for this setting: dose: 200.0 mg/kg/injection, schedule: Q04DX003 (ip), vehicle: Klucel (hydroxypropylcellulose) (HPC).
The mark [7] stands for this setting: dose: 400.0 mg/kg/injection, schedule: Q04DX003 (ip), vehicle: Klucel (hydroxypropylcellulose) (HPC).
[8] abbreviates: dose: 400.0 mg/kg/injection, schedule: Q04DX003 (ip), vehicle: saline.
Setting [9] is: dose: 200.0 mg/kg/injection, schedule: Q01DX001 (ip), vehicle: saline.
[10] abbreviates: dose: 400.0 mg/kg/injection, schedule: Q01DX001 (ip), vehicle: saline.
[11] abbreviates: dose: 400.0 mg/kg/injection, schedule: Q04DX003 (ip), vehicle: saline with Tween-80.
[12] abbreviates: dose: 400.0 mg/kg/injection, schedule: Q04DX002 (ip), vehicle: Klucel (hydroxypropylcellulose) (HPC).
[13] abbreviates: dose: 200.0 mg/kg/injection, schedule: Q01DX009 (ip), vehicle: saline.
Where [14] appears, read: dose: 400.0 mg/kg/injection, schedule: Q01DX009 (ip), vehicle: saline.
Where [15] appears, read: dose: 40.0 mg/kg/injection, schedule: Q01DX001 (ip), vehicle: saline.
Where [16] appears, read: dose: 80.0 mg/kg/injection, schedule: Q01DX001 (ip), vehicle: saline.
Setting [17] is: dose: 100.0 mg/kg/injection, schedule: Q01DX001 (ip), vehicle: saline.

Molecules are shown by their SMILES. The list does not hold the whole screen: it is rich in T/C values a quarter to a half above the control, in often repeated tests (any T/C) and in doses without a T/C. Further doses and runs are listed elsewhere. T/C gives the treated animals as a percentage of the vehicle group. Some doses have a count of surviving animals in place of a T/C: the source holds a T/C of zero for them, seemingly a mark for toxic or unscored doses. Some doses without a T/C left all or most animals alive at the check, yet need not have been tolerated: survival well below the control is almost never listed, so the zero probably covers shortened survival too. Counts of survivors are from the toxicity check (mostly the fifth day) where no day follows; animals may have died later. Schedule codes are those of the source, taken here to give the interval after Q, in days (D) or hours (H), and the number of doses after X. Some molecules as drawn cover several salts, stereoisomers or complexes of the source; a dose is that of the sample tested. Brackets with × give the number of equal values in this list. Some entries were tested several times; the values are given in rising order. Some schedule codes hold Z or #, which are not explained here.

Turning to `Cc1ccc(SCCN=C(N)CSS(=O)(=O)O)cc1`, the survivor count was 0 of 3 (dose: 50.0 mg/kg/injection, schedule: Q01DX009 (ip), vehicle: Klucel (hydroxypropylcellulose) (HPC)); 0 of 3 (dose: 100.0 mg/kg/injection, schedule: Q01DX009 (ip), vehicle: Klucel (hydroxypropylcellulose) (HPC)); 0 of 3 under setting [1]; 0 of 3 (dose: 400.0 mg/kg/injection, schedule: Q01DX009 (ip), vehicle: Klucel (hydroxypropylcellulose) (HPC)).
On to `CCN(CC)CCCN1c2ccccc2Sc2ccc(Cl)cc21`, for which the survivor count by setting is: (dose: 25.0 mg/kg/injection, schedule: Q01DX009 (ip), vehicle: saline) 0 of 6; (dose: 50.0 mg/kg/injection, schedule: Q04DX003 (ip), vehicle: saline) 0 of 4; under setting [2], 1 of 4; under setting [3], 0 of 4.
`CCCCCCCCCCCCCCCC=C(C)C`: the survivor count (dose: 400.0 mg/kg/injection, schedule: Q01DX001 (ip), vehicle: saline with Tween-80) is listed as 6 of 6.
Take `CC(N)Cc1ccc2c(c1)OCO2` (stereo not given): the survivor count by setting is: under setting [4], 3 of 6; under setting [5], 3 of 6 (2×); under setting [2], 3 of 6; under setting [6], 1 of 6; under setting [3], 1 of 4; under setting [7], 0 of 6. Moreover, the survivor count under setting [8] is recorded as 0 of 4.
Regarding `C=C1C(=O)OC2CC3(C)C(O)CCC(=C)C3C(OC(C)=O)C12` (stereo not given) (tested in a mixture with another compound), the survivor count is on record as 2 of 6 under setting [9] and 0 of 6 under setting [10].
`CCOC(=O)c1nnc(SC)nc1SC`: the survivor count (dose: 300.0 mg/kg/injection, schedule: Q01DX001 (ip), vehicle: alcohol) is listed as 2 of 6.
As for `O=C(Nc1ccc([N+](=O)[O-])cc1O)c1ccccc1`, the survivor count under setting [11] is recorded as 6 of 6.
On to `CCOC(=O)C(Br)C(Br)c1cccc([N+](=O)[O-])c1` (stereo not given), for which the survivor count is reported as 3 of 6 (dose: 200.0 mg/kg/injection, schedule: Q01DX009 (ip), vehicle: other) and 1 of 6 (dose: 400.0 mg/kg/injection, schedule: Q01DX009 (ip), vehicle: other).
With `COc1cc(OC)c(C(=O)c2ccccc2N)c(OC)c1`, the survivor count under setting [11] is reported as 6 of 6.
`C/C=N\NC(N)=O`: the survivor count is, setting by setting: under setting [2], 0 of 6 and 1 of 6; under setting [3], 0 of 6; under setting [8], 0 of 6.
For `CC1CCC(NC(=O)NCCCl)CC1` (stereo not given), the survivor count by setting is: (dose: 100.0 mg/kg/injection, schedule: Q01DX009 (ip), vehicle: saline sonified) 6 of 6; (dose: 200.0 mg/kg/injection, schedule: Q01DX009 (ip), vehicle: saline sonified) 6 of 6; (dose: 400.0 mg/kg/injection, schedule: Q01DX009 (ip), vehicle: saline sonified) 5 of 6.
Take `O=C1OC(CN2CCOCC2)CN1/N=C/c1ccc([N+](=O)[O-])o1` (stereo not given): the survivor count is, setting by setting: under setting [12], 1 of 3; (dose: 400.0 mg/kg/injection, schedule: Q04DX002 (ip), vehicle: saline) 2 of 3.
In the case of `CCOC1(OCC)CCCN1C`, the survivor count is recorded as 0 of 6 under setting [2], 0 of 6 under setting [3] and 0 of 6 under setting [8].
Take `CC1(C)N=C(N)N=C(N)N1c1cc(Cl)cc(CCCCc2ccc(S(=O)(=O)F)cc2)c1`: the survivor count is 5 of 6 under setting [6] and 1 of 6 under setting [7].
As to `CN=C(c1ccc(NC(=O)c2ccc(C(=O)Nc3ccc(C(=NC)N(C)C4CCCCC4)cc3)cc2)cc1)N(C)C1CCCCC1`, the survivor count is given as 0 of 6 (dose: 1.88 mg/kg/injection, schedule: Q01DX Z (ip), vehicle: saline); 1 of 6 (dose: 3.75 mg/kg/injection, schedule: Q01DX Z (ip), vehicle: saline); 0 of 6 (dose: 7.5 mg/kg/injection, schedule: Q01DX Z (ip), vehicle: saline); 0 of 6 (dose: 15.0 mg/kg/injection, schedule: Q01DX Z (ip), vehicle: saline); 0 of 6 (dose: 30.0 mg/kg/injection, schedule: Q01DX Z (ip), vehicle: saline); 0 of 6 (dose: 60.0 mg/kg/injection, schedule: Q01DX Z (ip), vehicle: saline). For the same molecule, the survivor count (dose: 120.0 mg/kg/injection, schedule: Q01DX Z (ip), vehicle: saline) is 0 of 6.
As to `NC1Cc2ccccc2C1`, the survivor count by setting is: under setting [13], 1 of 6; under setting [8], 0 of 6.
On to `C1CCN(NC2=NCCO2)CC1`, for which the survivor count by setting is: under setting [4], 6 of 6; under setting [13], 5 of 6; under setting [14], 0 of 6.
Consider `CCc1ccccc1NC(=S)NC`, for which the survivor count is, setting by setting: (dose: 100.0 mg/kg/injection, schedule: Q04DX002 (ip), vehicle: Klucel (hydroxypropylcellulose) (HPC)) 0 of 3; (dose: 200.0 mg/kg/injection, schedule: Q04DX002 (ip), vehicle: Klucel (hydroxypropylcellulose) (HPC)) 0 of 3; under setting [12], 0 of 3.
With `Cc1cc(SC#N)ncn1`, the survivor count reads like this: (dose: 20.0 mg/kg/injection, schedule: Q01DX001 (ip), vehicle: saline) 0 of 4; under setting [15], 0 of 4; (dose: 50.0 mg/kg/injection, schedule: Q01DX001 (ip), vehicle: saline) 0 of 4; under setting [16], 0 of 4; under setting [17], 0 of 4; under setting [9], 0 of 4. Under setting [10], the survivor count is 0 of 4.
In the case of `C=C(C)CC(Cc1ccccc1)NCC1CC1` (stereo not given), the survivor count was 3 of 6 (dose: 100.0 mg/kg/injection, schedule: Q04DX003 (ip), vehicle: Klucel (hydroxypropylcellulose) (HPC)); 0 of 6 under setting [6]; 0 of 6 under setting [7].
Take `Nc1nc(N)c2nc(CO)cnc2n1`: under setting [1], the survivor count is given as 2 of 3.
Turning to `O=[N+]([O-])c1cc(C(F)(F)F)ccc1Cl`, the survivor count under setting [14] is listed as 3 of 6.
In the case of `CCN(CC)c1ccc(NCN2C(=O)c3ccccc3C2=O)c(C)c1`, the survivor count (dose: 400.0 mg/kg/injection, schedule: Q04DX002 (ip), vehicle: saline with Tween-80) was 3 of 3.
Consider `CC(C(=O)N1c2ccccc2Sc2ccccc21)[N+](C)(C)C` (stereo not given), for which the survivor count is 3 of 6 under setting [5]; 2 of 6 under setting [2]; 0 of 6 (2×) under setting [3]; 0 of 6 and 1 of 6 under setting [8].
For the molecule `Oc1cc2ccc3c(c2cc1O)CCc1cn[nH]c1-3`, for the setting “dose: 200.0 mg/kg/injection, schedule: Q01DX001 (ip), vehicle: saline with Tween-80”, the survivor count was 3 of 3.
`CC12CCC(C1)C(C)(C)C2NCCCN1C(=O)c2ccc3c4c(ccc(c24)C1=O)C(=O)N(CCCNC1C2(C)CCC(C2)C1(C)C)C3=O` (stereo not given): the survivor count was 6 of 6 under setting [5], 6 of 6 under setting [3] and 6 of 6 under setting [8].
For `CC(=O)n1cc(CS)c(=O)[nH]c1=O`, the survivor count reads like this: under setting [9], 2 of 6; under setting [10], 2 of 6.
As for `O=Cc1ccccc1OCCCC[P+](c1ccccc1)(c1ccccc1)c1ccccc1`, the survivor count by setting is: under setting [15], 0 of 4; under setting [16], 0 of 4; under setting [17], 0 of 6; under setting [9], 0 of 6; under setting [10], 0 of 6.
`CCOc1nc(N)nc2n[nH]nc12`: the survivor count (dose: 350.0 mg/kg/injection, schedule: Q01DX Z (ip), vehicle: carboxymethylcellulose (CMC)) is given as 0 of 6.
